Results published in PubChem BioAssay AID1347076 (National Center for Advancing Translational Sciences (NCATS), 2019).
Among all 400,000 compounds or so, about 13,000 (3.2%) were called active. The shares of active, inactive and inconclusive entries below differ from those in the screen. Calls come from the whole dose curve; as a rule, active = well fitted cell-killing curve with a large enough effect; inconclusive = small, poorly fitted or top-dose-only effect, or effect the other way; inactive = flat fitted curve, though single readings scatter. Potencies of inconclusive entries are doubtful fits and often do not repeat.
% is set by controls: 0 for no effect and ±100 for the full control effect; potency is the fitted concentration of half-maximal effect.

Test: qHTS assay for MDR1-selective chemotherapeutics: Primary screen using the drug-selected MDR subline cells KB-V1; note: nearly all actives have a fitted effect of over 60% in size
Conditions: KB-V1 MDR cells viability, CellTiter-Glo, 72 h; activity change, negative = cytotoxicity: at 46.1 µM (top of the series)
How it was run: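 KB-V1 MDR subline cells in DMEM (phenol-red free, 10% FBS) exposed to compounds in qHTS concentration series for 72 h at 37 degrees C. Viability read by CellTiter-Glo luminescence; concentration-effect curves fitted after normalization and correction.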
With `CN1OC[C@@H]2CN(C(=O)C(C)(C)C)[C@H](c3ccc(-n4ccnc4)cc3)C[C@@H]21` the “activity change, negative = cytotoxicity” value was inactive: 0%.
In the case of `COCC(C)n1c(COc2ccccc2F)nnc1SCC(=O)Nc1oc(C)c2c(C)n[nH]c(=O)c12` (stereo not given), the “activity change, negative = cytotoxicity” value is reported as inactive: 13.4%.
With `Cc1nc(N2CCOCC2)c2c3c(sc2n1)CCC3` the Potency was inconclusive: 9.2 µM [cytotoxic, partial curve].
In the case of `CN(Cc1cnccn1)C(=O)CC1C(=O)NCCN1Cc1c(F)cccc1Cl` (stereo not given), the Potency is reported as inconclusive: 29.1 µM [rising, single point].
With `Cc1ccc(-n2c(NN)nc3ccccc3c2=O)c(C)c1` the “activity change, negative = cytotoxicity” value was inactive: 6.74%.
With `COc1ccccc1OCC(=O)Nc1ccccc1C(=O)N1CCCCC1` the Potency was inconclusive: 8.2 µM [cytotoxic, partial curve].
In the case of `CN(C)S(=O)(=O)c1cccc(NC(=O)Cc2ccc(-c3ccccc3)cc2)c1`, the Potency is reported as inconclusive: 9.2 µM [cytotoxic, partial curve].
In the case of `CCOc1ccc2c(c1)-c1c(ssc1=S)C(C)(C)N2`, the Potency is reported as inconclusive: 29.1 µM [cytotoxic, single point].
With `CCN(c1ccccc1)S(=O)(=O)c1cccc(C(=O)NCC(c2cccs2)N(C)C)c1` (stereo not given) the Potency was inconclusive: 2.31 µM [cytotoxic, full curve].
In the case of `CCOc1ccc(NC(=O)CN(C)C(=O)c2csc3c2CCCC3)cc1OCC`, the Potency is reported as active: 14.6 µM.
In the case of `O=[N+]([O-])c1ccc2cn(-c3ccccc3)nc2c1`, the Potency is reported as inconclusive: 23.1 µM [cytotoxic, partial curve].
For `O=C(c1cc(-c2ccncc2)nc2ccccc12)N1CCN(c2ncccn2)CC1`, the Potency was inconclusive: 20.6 µM [cytotoxic, single point].
In the case of `Cc1cccc(C(=O)/C=C2/c3ccccc3CC(C)(C)N2C)c1`, the Potency is reported as active: 18.4 µM.
For `COc1ccc(-c2cc(C(=O)Nc3cc(C(F)(F)F)ccc3Cl)no2)cc1`, the “activity change, negative = cytotoxicity” value was inactive: -1.11%.
With `CCCNC(=O)N[C@H]1C=C[C@H](CC(=O)OC)O[C@@H]1CO` the “activity change, negative = cytotoxicity” value was inactive: -11.2%.
With `COc1ccc(C(=O)C(=O)N2CCN(c3ccc(C)cc3)CC2)cc1OC` the Potency was inconclusive: 18.4 µM [cytotoxic, single point].
With `O=C(NNc1ccccc1[N+](=O)[O-])Nc1ccccc1` the “activity change, negative = cytotoxicity” value was inactive: -5.97%.
With `CC(C)NC(=O)Nc1ccc2c(c1)C(=O)N([C@H](C)CO)C[C@H](C)[C@@H](CN(C)C(=O)Nc1ccccc1)O2` the “activity change, negative = cytotoxicity” value was inactive: 15.5%.
With `COC(=O)c1ccc(-n2nnnc2SCC(=O)NCc2cccc(C(=O)O)c2)cc1` the Potency was inconclusive: 29.1 µM [rising, single point].
For `CCOc1ccc(C(=O)Nc2ccc(-c3cc4ccccc4oc3=O)cc2)cc1Br`, the “activity change, negative = cytotoxicity” value was inactive: 14.9%.
For `Cn1cnc(S(=O)(=O)Nc2ccc(Cl)c(C(F)(F)F)c2)c1`, the “activity change, negative = cytotoxicity” value was inactive: 0%.
With `Cn1cc(Cl)c(C(=O)NC(=S)Nc2sc3c(c2C#N)CCCCC3)n1` the Potency was inconclusive: 29.1 µM [cytotoxic, single point].
For `CCc1ccc(NC(=S)NC2CCN(Cc3ccccc3)CC2)cc1`, the Potency was inconclusive: 9.2 µM [cytotoxic, partial curve].
With `CC1CCCC(C)N1C(=O)COC(=O)c1ccc(F)c(S(=O)(=O)N2CCOCC2)c1` (stereo not given) the “activity change, negative = cytotoxicity” value was inactive: -28.6%.
For `CN(C1CCCCC1)S(=O)(=O)c1ccc2c(c1)c(=O)c(C(=O)N1CCN(c3ccccc3)CC1)cn2C`, the Potency was inconclusive: 29.1 µM [cytotoxic, single point].
With `O=C(Cc1cccc([N+](=O)[O-])c1)Nc1cccc(C(=O)N2CCCCC2)c1` the “activity change, negative = cytotoxicity” value was inactive: 3.77%.
In the case of `COCCNC(=O)CSCc1nc(-c2ccc(SC)cc2)oc1C`, the Potency is reported as active: 9.2 µM.
For `Cc1ccc(C(=O)N/N=C/c2cn(Cc3ccccc3)c3ccccc23)cn1`, the Potency was inconclusive: 29.1 µM [cytotoxic, single point].
For `Cc1cc(C)n2nc(-c3ccc(Cl)cc3)cc2n1`, the “activity change, negative = cytotoxicity” value was inactive: -10.5%.
For `O=C(Nc1nc2cc3c(cc2s1)OCCO3)c1ccncc1`, the Potency was inconclusive: 10.3 µM [cytotoxic, partial curve].
With `NC(=O)c1cc(Cc2ccccc2)sc1NC(=O)c1ccco1` the Potency was active: 9.2 µM.
In the case of `CS(=O)(=O)NN1C(=O)c2ccccc2NC1c1c[nH]c2ccccc12` (stereo not given), the Potency is reported as inconclusive: 20.6 µM [rising, single point].
With `CCn1c(C)nc2cc(C(=O)NNC(=S)Nc3ccc(Cl)cc3Cl)ccc21` the Potency was inconclusive: 18.4 µM [cytotoxic, single point].
For `COC(=O)c1ccc(NC(=O)C(C)Sc2nc(=O)cc(N)n2CCc2ccccc2)cc1` (stereo not given), the “activity change, negative = cytotoxicity” value was inactive: -4.79%.
In the case of `COc1ccc(CN=C(Nc2ccccc2)SC2CC(=O)N(C)C2=O)cc1` (stereo not given), the Potency is reported as inconclusive: 11.6 µM [cytotoxic, partial curve, poor fit].
In the case of `COc1cccc(/C=N/NC(=O)C(=O)N2CCCCCC2)c1OC`, the Potency is reported as inconclusive: 10.3 µM [rising, partial curve].
For `CCOC(=O)C1=CCC(c2ccc(Cl)cc2)N(S(=O)(=O)c2ccc(C)cc2)C1` (stereo not given), the Potency was inconclusive: 14.6 µM [cytotoxic, partial curve, poor fit].
With `COc1ccccc1-n1cc(C(=O)NCC(=O)N2CCN(c3ccccn3)CC2)c2ccccc2c1=O` the Potency was inconclusive: 23.1 µM [cytotoxic, partial curve].
For `CCOc1ccc(-c2nnn(CC(=O)NCc3ccc(F)cc3)n2)cc1OCC`, the Potency was inconclusive: 6.51 µM [cytotoxic, partial curve].
For `Cc1nn(C(C)(C)C)c(OC(=O)c2cccs2)c1Sc1ccccc1`, the “activity change, negative = cytotoxicity” value was inactive: -9.03%.
For `Cc1ccc(S(=O)(=O)N2C3CCCCC3O[C@H]2CC(=O)c2ccccc2)cc1` (stereo not given in full), the Potency was inconclusive: 14.6 µM [cytotoxic, partial curve].
For `COc1cccc(C(=O)NC(=S)Nc2ccc(N(C)C)cc2)c1`, the Potency was inconclusive: 16.4 µM [cytotoxic, single point].
In the case of `COc1ccc(NS(=O)(=O)c2ccc(N3CCCC3)c(NC(=S)Nc3ccc(SC(F)F)cc3)c2)cc1`, the Potency is reported as inconclusive: 25.9 µM [cytotoxic, partial curve, poor fit].
For `Cc1ccc(S(=O)(=O)N(C)Cc2ccc(C(=O)N/N=C/c3ccc(OC(F)F)cc3)cc2)cc1`, the Potency was active: 16.4 µM.
For `COc1ccc(-c2csc(N(CC3CCCO3)C(=O)c3ccco3)n2)cc1` (stereo not given), the “activity change, negative = cytotoxicity” value was inactive: -24.7%.
For `CC(C)Oc1ccc(/C=N/NC(N)=S)cc1`, the Potency was active: 14.6 µM.
For `Cc1ccc(CNC(=O)C2CC(=O)N(C3CCCCCCC3)C2)cc1` (stereo not given), the Potency was inconclusive: 20.6 µM [cytotoxic, single point].
In the case of `CC(C)CC(=O)Nc1nnc(SCC(=O)NCc2ccc3c(c2)OCO3)s1`, the “activity change, negative = cytotoxicity” value is reported as inactive: -11.4%.
For `Cc1ccc(NC(=O)CN2C(=O)CCSc3ccccc32)c(C)c1`, the Potency was inconclusive: 16.4 µM [cytotoxic, partial curve].
For `O=C(/C=C/c1ccc(Cl)c(Cl)c1)N1CCc2ccccc21`, the Potency was inconclusive: 25.9 µM [rising, partial curve, poor fit].
In the case of `Cc1ccc(CSCCNC(=O)c2cccc([N+](=O)[O-])c2)cc1`, the Potency is reported as active: 18.4 µM.
For `CCN1CCN(c2ncc3c(n2)CC(c2ccc(OC)c(OC)c2)CC3=O)CC1` (stereo not given), the Potency was active: 20.6 µM.
With `COc1ccc(NC(=O)C(c2ccccc2F)n2c(=O)c(-c3ccco3)nc3ccccc32)cc1` (stereo not given) the “activity change, negative = cytotoxicity” value was inactive: 0.536%.
In the case of `CCCCn1c(SCC(=O)NNC(=O)c2ccccc2)n[nH]c1=O`, the “activity change, negative = cytotoxicity” value is reported as inactive: -3.33%.
In the case of `CSc1cccc(-n2nnc(-c3nsc(NC(=O)c4cccs4)n3)c2C)c1`, the “activity change, negative = cytotoxicity” value is reported as inactive: -18.6%.
For `COC(=O)c1cc(OC)c(OC)cc1NC(=O)c1ccco1`, the Potency was inconclusive: 16.4 µM [cytotoxic, single point].
With `CCCN1CCN(S(=O)(=O)c2ccc3c(c2)CC(C)N3C(=O)C2CC2)CC1` (stereo not given) the Potency was inconclusive: 4.11 µM [cytotoxic, full curve, poor fit].
With `CNC(=O)COC(=O)c1ccccc1C(=O)c1ccc(Cl)c([N+](=O)[O-])c1` the Potency was inconclusive: 29.1 µM [cytotoxic, single point].
With `COc1ccc(C(C(=O)NC2CCCCC2)N(CC2CCCO2)C(=O)CCCC(=O)Nc2ccccn2)cc1` (stereo not given) the Potency was inconclusive: 20.6 µM [rising, single point].
In the case of `Cc1ccc(C2(C)NC(=O)N(CC(=O)c3ccc(Cl)s3)C2=O)cc1` (stereo not given), the Potency is reported as active: 20.6 µM.
In the case of `O=C(Nc1cnn(Cc2ccc(Cl)cc2Cl)c1)c1noc2c1CCCC2`, the Potency is reported as active: 10.3 µM.
For `COCCOC(=O)c1c(C)n(C)c2ccc(OC(=O)c3ccccc3F)cc12`, the Potency was inconclusive: 16.4 µM [rising, single point].
For `CCS(=O)(=O)N1CCCc2cc(C(=O)Nc3cc([N+](=O)[O-])ccc3C)ccc21`, the Potency was inconclusive: 29.1 µM [cytotoxic, single point].
With `COc1cc([N+](=O)[O-])ccc1NC(=S)Nc1cc(C(=O)OC(C)C)cc(C(=O)OC(C)C)c1` the Potency was inconclusive: 29.1 µM [cytotoxic, single point].
In the case of `O=C(OCc1ccccc1)/C(=C(\O)c1ccccc1Br)c1ccc(-c2ccccc2)cn1`, the activity change, negative = cytotoxicity is reported as inconclusive: -7.67%.
With `CCC(CC)NC(=O)CSc1ccc(S(=O)(=O)N2CCCCC2)cn1` the Potency was inconclusive: 8.2 µM [cytotoxic, partial curve, poor fit].
In the case of `CCC(C)[C@H]1COCCS(=O)(=O)N1Cc1ccc(Cl)cc1Cl` (stereo not given in full), the Potency is reported as inconclusive: 18.4 µM [cytotoxic, single point].
In the case of `CCCc1cc(=O)[nH]c(SCC(=O)Nc2ccc(OC(F)F)cc2)n1`, the “activity change, negative = cytotoxicity” value is reported as inactive: 4.48%.
With `COCCn1c(COc2ccc(C)cc2)nc2ccccc21` the Potency was inconclusive: 29.1 µM [cytotoxic, single point].
With `Cc1cccc(CN2CCN(CC(=O)NCCCN3CCN(c4ccc(F)cc4)CC3)C2=O)c1` the Potency was inconclusive: 18.4 µM [cytotoxic, partial curve].
